The text below walks through data of PMC9516341.

Assay [1] deals with GST-ARNO^255-386 (PH), bacterially purified (mouse). The experiment in a line: pull-down; direct interaction assay: bacterially purified GST or GST-ARNO fragment as bait with purified His-tagged protein; in figure 3a with His-FE65 PTB2 or His-FE65 PTB2 R605A added; both purified.
Assay [2] deals with GST-ARNO^271-399 (PH + CtH/PBR), purified from E. coli (mouse). The assay is described as above.
Assay [3] concerns the target Flag-tagged ARNO (p3XFLAG-2-mCytohesin-2) (mouse). Kind of assay: co-IP; transfected cell lysates; ARNO immunoprecipitated by its tag (anti-GFP JL-8 or anti-FLAG M2); FE65 detected with anti-FE65 (E-20).
The next assay has as its target GFP-tagged ARNO (mouse). The description is as above.
Assay [4] deals with GST-ARNO^255-386 (PH), mammalian expression (mouse). Kind of assay: pull-down; mammalian GST fusion protein binding assay: cells co-transfected with FE65 and GST or GST-ARNO fragments; lysates incubated with glutathione Sepharose 4B.
The target of assay [5] is GST-ARNO^255-399 (PH + CtH/PBR), mammalian expression (mouse). Described as above.
For assay [6], the target named is GST-ARNO^377-399 (CtH/PBR), mammalian expression (mouse). The description is as above.
The target in assay [7] is GST-ARNO (bacterially expressed) (mouse). Kind of assay: pull-down; bacterially expressed GST or GST-tagged protein as bait, incubated with transfected cell lysate; FE65 detected by blot with anti-FE65 (E-20); only the target purified.
The target of assay [8] is GST-ARNO^255-386 (PH), bacterially purified (mouse). The description is as above.

These are yes or no findings as the source states them, for the method shown. For some of these results: Binding calls can cover weak binding; strength is not graded here. Where a sequence is shown, tags or fusion partners need not be part of it. For some of these results: Binding seen in cells or lysates may run through a third protein.

B1: His-tagged FE65 PTB2 (domain or fragment, UniProt O00213 531-666)
chain: EFPAPKNELVQKFQVYYLGNVPVAKPVGVDVINGALESVLSSSSREQWTPSHVSVAPATLTILHQQTEAVLGECRVRFLSFLAVGRDVHTFAFIMAAGPASFCCHMFWCEPNAASLSEAVQAACMLRYQKCLDARS
As for B1, the binding result in assay [1] and in assay [2] was “binds” each time.

B2: His-ARNO^1-270 (CC + Sec7 + Sec7-PH linker), purified from E. coli (domain or fragment, UniProt P63034 1-270)
chain: MEDGVYEPPDLTPEERMELENIRRRKQELLVEIQRLREELSEAMSEVEGLEANEGSKTLQRNRKMAMGRKKFNMDPKKGIQFLVEHELLQNTPEEIARFLYKGEGLNKTAIGDYLGEREELNLSVLHAFVDLHEFTDLNLVQALRQFLWSFRLPGEAQKIDRMMEAFAQRYCLCNPGVFQSTDTCYVLSFAVIMLNTSLHNPNVRDKPGLERFVAMNRGINEGGDLPEDLLRNLYDSIRNEPFKIPEDDGNDLTHTFFNPDREGWLLKLG
With B2, the binding result in assay [2] is recorded as “binds”.

B3: Myc-tagged FE65 (protein, UniProt O00213 1-710)
chain: MSVPSSLSQSAINANSHGGPALSLPLPLHAAHNQLLNAKLQATAVGPKDLRSAMGEGGGPEPGPANAKWLKEGQNQLRRAATAHRDQNRNVTLTLAEEASQEPEMAPLGPKGLIHLYSELELSAHNAANRGLRGPGLIISTQEQGPDEGEEKAAGEAEEEEEDDDDEEEEEDLSSPPGLPEPLESVEAPPRPQALTDGPREHSKSASLLFGMRNSAASDEDSSWATLSQGSPSYGSPEDTDSFWNPNAFETDSDLPAGWMRVQDTSGTYYWHIPTGTTQWEPPGRASPSQGSSPQEESQLTWTGFAHGEGFEDGEFWKDEPSDEAPMELGLKEPEEGTLTFPAQSLSPEPLPQEEEKLPPRNTNPGIKCFAVRSLGWVEMTEEELAPGRSSVAVNNCIRQLSYHKNNLHDPMSGGWGEGKDLLLQLEDETLKLVEPQSQALLHAQPIISIRVWGVGRDSGRERDFAYVARDKLTQMLKCHVFRCEAPAKNIATSLHEICSKIMAERRNARCLVNGLSLDHSKLVDVPFQVEFPAPKNELVQKFQVYYLGNVPVAKPVGVDVINGALESVLSSSSREQWTPSHVSVAPATLTILHQQTEAVLGECRVRFLSFLAVGRDVHTFAFIMAAGPASFCCHMFWCEPNAASLSEAVQAACMLRYQKCLDARSQASTSCLPAPPAESVARRVGWTVRRGVQSLWGSLKPKRLGAHTP
As to B3, the binding result in assay [3] was “binds”; in the assay with GFP-tagged ARNO (mouse), “binds”; in assay [4], “binds”; in assay [5] it was “binds”; in assay [6] it was “no binding”; in [7] it was “binds”. Moreover, the binding result in assay [8] is on record as “binds”.
